PubChem BioAssay AID493246 – Drosophila RNAi Screening Center | 2011

- Screen: 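Identify essential fly genes by loss of cell viability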 (primary screen)
- Cell system: Drosophila Kc and S2R+ cells
- Knock-down reagent: long dsRNA against Drosophila genes
- Detection: 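Cell number per well after knock-down, printed as raw plate values; calls were based on per-plate z-scores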
- Scale: Kc cell number and S2R+ cell number: higher = more cells remaining
- Rule for the call: 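Counted as a hit if cell number falls by a z-score of at least 3 within its plate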
The screen tested about 21,000 reagents; below is an unselected part of those with a known target gene and a result. Over the whole deposit, 429 (2%) got an active call. 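Values are raw and not normalised between plates; calls rest on per-plate z-scores that were not deposited.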 Names joined by + are all predicted targets of the reagent. Not given: the amount of reagent, the time to read-out.

Kc cell number, rep 1	Kc cell number, rep 2	S2R+ cell number, rep 1	S2R+ cell number, rep 2	call	gene knocked down	DRSC id
1.47e6	1.56e6	9.82e5	1.22e6	inactive	CG31740 (GeneID 261618)	DRSC01619
1.59e6	1.73e6	1.10e6	1.23e6	inactive	Vps37B (GeneID 40624)	DRSC12165
1.35e6	1.28e6	1.15e6	1.20e6	inactive	ATPsynCF6L (GeneID 38592)	DRSC08232
1.24e6	1.22e6	1.03e6	8.96e5	inactive	tHMG1 (GeneID 42650)	DRSC16181
1.00e6	1.32e6	2.91e5	3.89e5	inactive	ND-15 (GeneID 33179)	DRSC00311
1.59e6	1.62e6	1.07e6	1.17e6	inactive	Jhbp11 (GeneID 43263)	DRSC15183
4.65e5		7.81e5		inactive	TfIIA-L (GeneID 43284)	DRSC16882
1.56e6	1.71e6	1.39e6	3.18e5	inactive	CG13081 (GeneID 35245)	DRSC02185
1.56e6	1.56e6	1.19e6	1.32e6	inactive	Lip1 (GeneID 43973)	DRSC03364
1.63e6	1.91e6	1.16e6	1.26e6	inactive	CG32547 (GeneID 3346150)	DRSC19263
1.59e6	1.91e6	1.14e6	1.35e6	inactive	CG32547 (GeneID 3346150)	DRSC19265
1.58e6	1.57e6	1.18e6	1.36e6	inactive	CG32547 (GeneID 3346150)	DRSC19474
1.55e6	1.61e6	9.99e5	1.12e6	inactive	CG32547 (GeneID 3346150)	DRSC19626
1.53e6	1.54e6	1.24e6	3.30e5	inactive	CG15657 (GeneID 37408)	DRSC04248
1.36e6	1.43e6	9.44e5	9.82e5	inactive	Adss (GeneID 42466)	DRSC14162
1.32e6	1.36e6	1.11e6	1.17e6	inactive	CG12744 (GeneID 36024)	DRSC06164
1.66e6	1.54e6	1.18e6	1.38e6	inactive	TpnC25D (GeneID 33752)	DRSC02965
1.72e6	1.63e6	1.09e6	1.47e6	inactive	IntS10 (GeneID 38444)	DRSC08173
1.50e6	1.45e6	1.29e6	1.37e6	inactive	scpr-A + scpr-C + scpr-B	DRSC15715
1.60e6	1.63e6	1.21e6	1.34e6	inactive	Ref2 (GeneID 34667)	DRSC02563
1.34e6	1.43e6	9.66e5	1.13e6	inactive	CG13001 (GeneID 32684)	DRSC19520
1.62e6	1.60e6	1.28e6	1.41e6	inactive	Pdh (GeneID 39812)	DRSC11249
1.27e6	1.51e6	1.26e6	1.44e6	inactive	Notum (GeneID 39751)	DRSC09959
1.30e6	1.47e6	1.12e6	1.12e6	inactive	Clk (GeneID 38872)	DRSC11117
1.28e6	1.38e6	1.08e6	1.28e6	inactive	COX7B (GeneID 50266)	DRSC10895
1.38e6	1.45e6	1.31e6	1.41e6	inactive	CG4073 (GeneID 41284)	DRSC15542
1.60e6	1.66e6	1.34e6	1.48e6	inactive	CG9393 (GeneID 41152)	DRSC16486
1.35e6	1.50e6	1.19e6	1.17e6	inactive	GAPsec (GeneID 38987)	DRSC10564
1.61e6	1.56e6	1.25e6	1.28e6	inactive	CG13297 (GeneID 38711)	DRSC09971
1.22e6	1.27e6	1.10e6	9.53e5	inactive	FoxK (GeneID 39252)	DRSC09859
1.27e6	1.37e6	1.30e6	1.24e6	inactive	CG10859 (GeneID 34756)	DRSC02110
1.51e6	1.43e6	1.05e6	1.08e6	inactive	CG10347 (GeneID 32141)	DRSC19352
1.56e6	1.50e6	1.10e6	1.21e6	inactive	I-3 (GeneID 33068)	DRSC20479
1.66e6	1.61e6	1.15e6	1.29e6	inactive	CG8319 (GeneID 41165)	DRSC16407
1.52e6	1.70e6	1.16e6	1.27e6	inactive	ZnT35C (GeneID 34890)	DRSC01959
1.54e6	1.56e6	1.10e6	1.21e6	inactive	MBD-R2 (GeneID 41498)	DRSC14180
1.52e6	1.48e6	1.01e6	1.12e6	inactive	CG14507 (GeneID 43461)	DRSC14859
1.58e6	1.61e6	1.08e6	1.12e6	inactive	Tmtc3 (GeneID 37401)	DRSC04444
1.69e6	1.71e6	1.26e6	1.56e6	inactive	CG13427 (GeneID 37316)	DRSC06389
8.23e5	9.04e5	5.78e5	6.71e5	active	pAbp (GeneID 37070)	DRSC07659

Entries listed so far whose target name begins with A or a:
Kc cell number, rep 1	Kc cell number, rep 2	S2R+ cell number, rep 1	S2R+ cell number, rep 2	call	gene knocked down	DRSC id
1.35e6	1.28e6	1.15e6	1.20e6	inactive	ATPsynCF6L (GeneID 38592)	DRSC08232
1.36e6	1.43e6	9.44e5	9.82e5	inactive	Adss (GeneID 42466)	DRSC14162
